Laboratory results published in PMC10581003.
These are yes or no findings as the source states them, for the method shown. Binding seen in cells or lysates may run through a third protein. Some binding calls cover weakened binding; strength is not graded here.

Protein sequences, listed by entry. Tags and fused reporters are not part of them.
UniProt P42224: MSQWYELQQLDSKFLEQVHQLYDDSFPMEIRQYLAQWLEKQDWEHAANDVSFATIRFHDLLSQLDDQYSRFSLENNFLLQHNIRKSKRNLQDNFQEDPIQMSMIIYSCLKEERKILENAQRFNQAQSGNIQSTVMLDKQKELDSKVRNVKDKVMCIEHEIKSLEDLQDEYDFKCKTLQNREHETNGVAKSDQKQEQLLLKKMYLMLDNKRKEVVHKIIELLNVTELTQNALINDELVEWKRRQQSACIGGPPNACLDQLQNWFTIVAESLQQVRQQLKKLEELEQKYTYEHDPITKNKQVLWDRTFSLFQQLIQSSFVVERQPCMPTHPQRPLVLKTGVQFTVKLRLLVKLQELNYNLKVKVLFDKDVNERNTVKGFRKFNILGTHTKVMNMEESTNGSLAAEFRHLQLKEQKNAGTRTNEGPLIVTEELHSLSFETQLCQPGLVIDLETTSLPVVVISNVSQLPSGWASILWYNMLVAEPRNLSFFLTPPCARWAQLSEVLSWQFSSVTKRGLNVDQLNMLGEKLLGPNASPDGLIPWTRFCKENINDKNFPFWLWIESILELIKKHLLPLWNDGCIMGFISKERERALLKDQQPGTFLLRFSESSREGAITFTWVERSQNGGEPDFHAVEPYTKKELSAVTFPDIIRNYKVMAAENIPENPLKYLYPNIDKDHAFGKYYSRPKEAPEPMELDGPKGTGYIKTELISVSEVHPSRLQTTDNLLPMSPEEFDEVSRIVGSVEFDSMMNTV

Biological target: T1, KDM7A (lysine demethylase 7A) (human (endogenous in HepG2)) (UniProt Q6ZMT4)
T1 sequence: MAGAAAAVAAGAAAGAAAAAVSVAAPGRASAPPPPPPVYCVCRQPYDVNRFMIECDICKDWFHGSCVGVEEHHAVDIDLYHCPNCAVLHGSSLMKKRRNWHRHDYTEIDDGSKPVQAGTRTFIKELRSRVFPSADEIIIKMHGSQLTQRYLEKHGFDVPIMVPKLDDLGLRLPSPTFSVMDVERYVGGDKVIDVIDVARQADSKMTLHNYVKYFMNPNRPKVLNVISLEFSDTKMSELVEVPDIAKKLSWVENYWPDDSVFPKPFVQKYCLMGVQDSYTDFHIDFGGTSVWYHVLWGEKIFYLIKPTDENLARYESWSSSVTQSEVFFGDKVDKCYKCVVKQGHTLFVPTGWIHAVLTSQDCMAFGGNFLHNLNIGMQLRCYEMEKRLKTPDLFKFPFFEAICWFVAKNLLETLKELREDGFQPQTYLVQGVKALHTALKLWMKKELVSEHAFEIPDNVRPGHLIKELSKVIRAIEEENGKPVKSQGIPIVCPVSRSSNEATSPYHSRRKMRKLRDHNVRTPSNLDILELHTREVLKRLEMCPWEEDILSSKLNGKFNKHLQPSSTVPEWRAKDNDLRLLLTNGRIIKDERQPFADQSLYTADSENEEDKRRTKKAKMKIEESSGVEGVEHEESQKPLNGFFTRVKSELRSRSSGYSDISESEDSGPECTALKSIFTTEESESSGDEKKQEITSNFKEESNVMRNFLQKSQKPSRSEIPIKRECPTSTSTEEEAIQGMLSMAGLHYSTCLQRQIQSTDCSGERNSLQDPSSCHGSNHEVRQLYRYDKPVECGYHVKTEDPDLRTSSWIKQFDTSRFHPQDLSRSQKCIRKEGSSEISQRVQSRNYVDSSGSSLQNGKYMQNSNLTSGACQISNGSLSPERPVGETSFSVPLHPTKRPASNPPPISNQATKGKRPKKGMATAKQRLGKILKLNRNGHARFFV
Assay: co-IP; HepG2 cells treated with IFN-γ (50 ng/mL), immunoprecipitation and immunoblotting with the indicated antibodies; endogenous proteins; procedure cited from earlier work

binding: binds
Substance: STAT1 (from UniProt P42224 1-750)
